# Data reported in US5891622A, “Assessment of oxidative stress in vivo” (Oxford Biomedical Research, Inc., priority 1998, dated 1999).
# Tested on: anti-8EPGF2 IgG
# Test: immunoreactivity of antibodies against 8EPGF2 for esterified 8EPGF2
# Assay type: binding, goat
smiles,measurement,setting,value
"CCCCC[C@H](O)/C=C/[C@@H]1[C@H](C/C=C\CCCC(=O)O)[C@@H](O)C[C@H]1O [8EPGF2, 8-epi-prostaglandin F2α]","8-epi-PGF2α, Free Form",free form,113.8 pg/mg oxidized LDL
same,"8-epi-PGF2α, Total",total,795.7 pg/mg oxidized LDL
